Test results taken from patent US12233073B2, “Skin care formulations and skin cancer treatment” (Regents of the University of Minnesota, priority 2017, dated 2025).
Some of these results come from one statement about several compounds together. At least one compound was matched to its structure with a doubt left.

Test system: SSL-induced skin tumors in SKH-1 hairless mice
Details: as summarised in the description ("may provide")
Protocol: The effectiveness of different candidate compounds in preventing sUV-induced cancer was evaluated. SKH-1 hairless mice (Charles River, Burlington, Massachusetts) were treated with formulations including one or more candidate compounds and exposed to SSL (solar simulated light). Female mice aged 5-6 weeks at the beginning of the study were used. The mice were exposed to SSL three times a week for 15 weeks from the beginning of the study. At week 1, the SSL dose included 37 kJ/m^2 UVA and 1.8 kJ/m^2 UVB three times per week. […] At week 6, the dose included 60 kJ/m^2 UVA and 2.9 kJ/m^2 UVB and this dose was maintained until week 15 at which time SSL exposure was stopped. Each mouse received a topical application (on the dorsal skin surface posterior to the base of the neck and anterior to the base of the tail) of one or more candidate compounds in a base cream one hour before SSL exposure. 15 weeks onwards, the mice were no longer exposed to SSL but the topical application of cream with sunscreen compounds was continued until 30 weeks. Control mice received topical application of cream with sunscreen compounds but no SSL.
Tumors were counted by sight. The dimensions of each tumor were measured using a digital caliper. Tumor volume (mm^3) was determined as (length×width^2)×0.52, where the length and width were measured in mm. […]

Question: With `[O]=[Zn]` [Zinc oxide] as the molecule, how does the “anti-sUV effectiveness (% reduction in the average volume of tumors)” value read?
Answer: The value was at least 90%.
